In the supplement of paper PMC6078165:
Values are relative to the signal before dosing, not to a vehicle control; the signal also falls without drug.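 Fibroblast labels name human fibroblasts: mostly primary ones from tissues such as uterus (C12385, HUF), lung (H6013), bone (Hs27A), adrenal (HADF) and skin (WS1), plus mammary HMF and breast cancer-associated Hs343T. The cancer cells are basal-like or mesenchymal-like triple-negative breast cancer lines. The paper calls a changed response a hit when it shifts by more than 3x the replicate standard deviation. The tissue of the other fibroblasts is not given here.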

System: MDAMB436
Test: relative JC-1 red fluorescence (viability) vs pre-drug, coculture with fibroblast (fraction); higher = more viable cancer cells
Procedure: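 JC-1 labelled TNBC cells cocultured 1:1 (1,500 cells each) with CellTrace Violet stained primary or stromal fibroblasts in 384-well plates in FluoroBrite medium, treated with one of 42 anticancer drugs at 0.1, 1, 10 or 100 uM. JC-1 red fluorescence (mitochondrial integrity in cancer cells only) was read by plate reader every 8 h for 72 h. Values are normalised to each well's pre-drug value. The stock of one drug was tenfold lower, so its dose labels may be too high.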

N.N.[Cl][Pt][Cl] [Cisplatin]
relative JC-1 red fluorescence
Conditions	8 h	16 h	24 h	32 h	40 h	48 h	56 h	64 h	72 h
0.1 µM, coculture fibroblast: C12385	0.775	0.69	0.662	0.587	0.54	0.523	0.512	0.51	0.516
0.1 µM, coculture fibroblast: H6013	0.815	0.78	0.78	0.776	0.768	0.804	0.766	0.759	0.718
0.1 µM, coculture fibroblast: H6019	0.7086	0.651	0.63	0.554	0.517	0.5	0.463	0.433	0.411
0.1 µM, coculture fibroblast: H6076	0.709	0.659	0.6664	0.624	0.621	0.599	0.62	0.614	0.612
0.1 µM, coculture fibroblast: H6231	0.7288	0.6522	0.6718	0.5958	0.592	0.5671	0.5702	0.5497	0.542
0.1 µM, coculture fibroblast: HADF	0.821	0.7686	0.7584	0.73	0.732	0.751	0.697	0.694	0.652
0.1 µM, coculture fibroblast: HCFa	0.793	0.753	0.72	0.693	0.671	0.682	0.618	0.611	0.559
0.1 µM, coculture fibroblast: HCPF	0.746	0.685	0.68	0.627	0.62	0.595	0.589	0.579	0.573
0.1 µM, coculture fibroblast: HHSteC	0.815	0.761	0.725	0.68	0.666	0.679	0.615	0.601	0.553
0.1 µM, coculture fibroblast: HMF	0.748	0.6838	0.661	0.611	0.599	0.57	0.5764	0.56903	0.5637
0.1 µM, coculture fibroblast: HPFa	0.847	0.797	0.777	0.729	0.72	0.737	0.655	0.628	0.557
0.1 µM, coculture fibroblast: HUF	0.812	0.711	0.701	0.623	0.574	0.555	0.54	0.531	0.531
0.1 µM, coculture fibroblast: Hs5	0.77241	0.71654	0.6957	0.643	0.629	0.59	0.598	0.575	0.573
0.1 µM, coculture fibroblast: Hs27A	0.786	0.71	0.702	0.679	0.654	0.71	0.625	0.612	0.545
0.1 µM, coculture fibroblast: Hs343T	0.751	0.657	0.617	0.574	0.538	0.513	0.501	0.49	0.483
0.1 µM, coculture fibroblast: WS1	0.754	0.689	0.6794	0.605	0.566	0.558	0.544	0.527	0.525
1 µM, coculture fibroblast: C12385	0.769	0.7053	0.689	0.615	0.575	0.564	0.549	0.547	0.54084
1 µM, coculture fibroblast: H6013	0.799	0.764	0.753	0.746	0.752	0.791	0.762	0.763	0.726
1 µM, coculture fibroblast: H6019	0.746	0.719	0.728	0.667	0.647	0.653	0.626	0.595	0.568
1 µM, coculture fibroblast: H6076	0.733	0.6808	0.695	0.663	0.6578	0.654	0.6866	0.698	0.71
1 µM, coculture fibroblast: H6231	0.6771	0.649	0.713	0.635	0.628	0.617	0.625	0.616	0.605
1 µM, coculture fibroblast: HADF	0.8	0.793	0.7824	0.764	0.78	0.824	0.768	0.769	0.726
1 µM, coculture fibroblast: HCFa	0.767	0.721	0.683	0.649	0.637	0.66	0.599	0.586	0.542
1 µM, coculture fibroblast: HCPF	0.739	0.712	0.7525	0.704	0.712	0.705	0.717	0.715	0.716
1 µM, coculture fibroblast: HHSteC	0.817	0.805	0.795	0.759	0.772	0.788	0.744	0.729	0.681
1 µM, coculture fibroblast: HMF	0.739	0.6934	0.7097	0.66	0.648	0.621	0.627	0.627	0.618
1 µM, coculture fibroblast: HPFa	0.872	0.881	0.879	0.854	0.861	0.89	0.811	0.793	0.724
1 µM, coculture fibroblast: HUF	0.799	0.7236	0.7157	0.6463	0.611	0.5993	0.583	0.584	0.578
1 µM, coculture fibroblast: Hs5	0.729	0.7	0.715	0.668	0.675	0.647	0.682	0.685	0.696
1 µM, coculture fibroblast: Hs27A	0.756	0.732	0.734	0.722	0.735	0.838	0.751	0.768	0.716
1 µM, coculture fibroblast: Hs343T	0.71311	0.6486	0.647	0.605	0.59039	0.57223	0.5749	0.56928	0.5711
1 µM, coculture fibroblast: WS1	0.742	0.67	0.65798	0.583	0.5476	0.5372	0.5234	0.51	0.5044
10 µM, coculture fibroblast: C12385	0.785	0.7208	0.709	0.637	0.599	0.591	0.585	0.577	0.5807
10 µM, coculture fibroblast: H6013	0.849	0.7856	0.7857	0.787	0.793	0.824	0.803	0.797	0.772
10 µM, coculture fibroblast: H6019	0.759	0.705	0.7	0.64	0.618	0.612	0.594	0.592	0.58
10 µM, coculture fibroblast: H6076	0.698	0.592	0.594	0.568	0.569	0.556	0.585	0.592	0.5995
10 µM, coculture fibroblast: H6231	0.658	0.5672	0.597	0.5342	0.517	0.495	0.497	0.481	0.487
10 µM, coculture fibroblast: HADF	0.813	0.788	0.78	0.756	0.7384	0.761	0.711	0.706	0.669
10 µM, coculture fibroblast: HCFa	0.826	0.792	0.781	0.765	0.769	0.797	0.747	0.743	0.698
10 µM, coculture fibroblast: HCPF	0.7231	0.634	0.623	0.557	0.541	0.513	0.498	0.493	0.49
10 µM, coculture fibroblast: HHSteC	0.8273	0.837	0.831	0.802	0.806	0.831	0.784	0.779	0.7339
10 µM, coculture fibroblast: HMF	0.679	0.582	0.574	0.549	0.55	0.529	0.538	0.539	0.542
10 µM, coculture fibroblast: HPFa	0.883	0.841	0.827	0.794	0.792	0.839	0.787	0.775	0.737
10 µM, coculture fibroblast: HUF	0.822	0.744	0.73	0.666	0.62	0.603	0.593	0.594	0.587
10 µM, coculture fibroblast: Hs5	0.79002	0.693	0.67	0.615	0.572	0.525	0.536	0.52	0.519
10 µM, coculture fibroblast: Hs27A	0.827	0.8	0.805	0.805	0.798	0.885	0.814	0.824	0.7703
10 µM, coculture fibroblast: Hs343T	0.716	0.608	0.577	0.535	0.508	0.481	0.466	0.463	0.468
10 µM, coculture fibroblast: WS1	0.771	0.6934	0.6674	0.597	0.5543	0.538	0.524	0.518	0.518
100 µM, coculture fibroblast: C12385	0.78	0.741	0.718	0.644	0.618	0.613	0.608	0.61	0.606
100 µM, coculture fibroblast: H6013	0.8363	0.828	0.814	0.791	0.796	0.822	0.785	0.78	0.739
100 µM, coculture fibroblast: H6019	0.779	0.737	0.7145	0.619	0.582	0.57017	0.5496	0.5307	0.521
100 µM, coculture fibroblast: H6076	0.741	0.6262	0.632	0.586	0.567	0.544	0.544	0.536	0.522
100 µM, coculture fibroblast: H6231	0.667	0.564	0.657	0.578	0.571	0.546	0.548	0.533	0.522
100 µM, coculture fibroblast: HADF	0.844	0.849	0.854	0.83	0.845	0.834	0.828	0.824	0.785
100 µM, coculture fibroblast: HCFa	0.829	0.784	0.738	0.697	0.669	0.685	0.633	0.628	0.578
100 µM, coculture fibroblast: HCPF	0.702	0.658	0.667	0.6102	0.597	0.557	0.554	0.544	0.53
100 µM, coculture fibroblast: HHSteC	0.85	0.887	0.881	0.838	0.847	0.859	0.812	0.797	0.753
100 µM, coculture fibroblast: HMF	0.725	0.5982	0.608	0.57	0.552	0.518	0.515	0.499	0.484
100 µM, coculture fibroblast: HPFa	0.841	0.799	0.775	0.739	0.75	0.786	0.732	0.73	0.697
100 µM, coculture fibroblast: HUF	0.826	0.757	0.728	0.6494	0.602	0.588	0.576	0.57	0.568
100 µM, coculture fibroblast: Hs5	0.729	0.689	0.656	0.599	0.5757	0.54	0.5472	0.527	0.519
100 µM, coculture fibroblast: Hs27A	0.874	0.833	0.81	0.778	0.7698	0.839	0.772	0.771	0.712
100 µM, coculture fibroblast: Hs343T	0.668	0.621	0.627	0.579	0.576	0.55	0.555	0.558	0.565
100 µM, coculture fibroblast: WS1	0.7594	0.705	0.672	0.58	0.534	0.512	0.502	0.489	0.489
